According to the supplement of paper PMC3334620:
In all, about 33,000 sequences were measured (“E-score (-0.5 to 0.5)”: median about -0.0059, highest 2% from about 0.26 on). The list shows a part of the results.

What follows are sequences tested against T1, Cin5 (UniProt P40917) (assay: PBM E-score (8-mer binding enrichment) (E-score (-0.5 to 0.5)); higher = stronger / more preferred TF binding). Conditions: protein concentration: 100 nM; construct: GST-full length.
T1 sequence: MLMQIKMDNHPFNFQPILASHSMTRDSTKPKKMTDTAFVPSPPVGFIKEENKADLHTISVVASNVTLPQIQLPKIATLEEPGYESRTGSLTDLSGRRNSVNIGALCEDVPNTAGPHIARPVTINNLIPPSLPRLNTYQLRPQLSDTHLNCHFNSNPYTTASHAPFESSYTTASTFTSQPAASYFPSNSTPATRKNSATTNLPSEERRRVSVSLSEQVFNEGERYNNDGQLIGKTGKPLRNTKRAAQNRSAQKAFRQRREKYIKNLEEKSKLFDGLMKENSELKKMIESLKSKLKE
In short: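 Masliner-normalised scans of fluorescent anti-GST signal were the basis for scoring. That signal came from GST-tagged yeast transcription factors applied at about 100-200 nM to double-stranded universal all-10-mer Agilent arrays on fresh or once-stripped slides. Each ungapped eight-base word, pooled with its reverse complement, received an E-score from the Universal PBM Analysis Suite.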

Row | Sequence | PBM E-score
1 | AGCGGATC | 0.0955
2 | AACGTGAC | 0.0406
3 | CGGATTGA | 0.131
4 | CGGTAGAA | -0.303
5 | ATTGACGG | 0.0426
6 | CCGTTAAG | -0.15
7 | TGCAATAA | 0.216
8 | GATCAGCC | -0.051
9 | CGCATCTA | 0.271
10 | CATGTCCC | -0.0302
11 | AAATTATG | 0.24
12 | ACCCGCTA | -0.0818
13 | ATTCTGTA | -0.0612
14 | AGAAGTAA | 0.159
15 | CGACACCC | -0.0488
16 | CTGCCATC | 0.0753
17 | AAGTGGTC | -0.049
18 | GAGGTACC | -0.194
19 | ACCTGGGA | 0.0597
20 | CAGTTTAA | 0.00606
21 | CTTTTGGC | -0.0628
22 | AATGCAAC | 0.0401
23 | TAATTCGA | 0.0111
24 | ATACTTAA | 0.128
25 | ATTTCAGC | 0.0134

Row | Sequence | PBM E-score
26 | CTGACATC | 0.173
27 | CCGCAGTA | -0.133
28 | ACATTAGT | 0.109
29 | GTAAGCAA | 0.419
30 | AATACTTA | 0.0724
31 | TACGAGGA | 0.0138
32 | AGAGGTCG | -0.0588
33 | AGCTTTTC | -0.105
34 | CTCGAGTA | 0.147
35 | CTTGTAAC | 0.129
36 | AGGTTACG | 0.067
37 | GGCGCGCA | 0.116
38 | ATGCTTTA | -0.0364
39 | TCCTGCGA | 0.00245
40 | CGGAGGTA | -0.106
41 | CTCCTCAG | -0.237
42 | TCCGTCGA | 0.193
43 | GTCATCGA | -0.115
44 | CTTCCAGC | -0.219
45 | TCGAAACA | 0.183
46 | CTATAAGA | 0.0762
47 | ACCACCAG | 0.0519
48 | GCCCTTAC | -0.289
49 | ACTCGAGA | 0.116
50 | CAGGGGCC | -0.202

Row | Sequence | PBM E-score
51 | GCGGGCAC | -0.00324
52 | ACATAGAG | -0.0918
53 | CAGGAAGA | -0.0593
54 | ACGTCTGA | 0.021
55 | CTGACACC | -0.181
56 | ACAATGCT | 0.0549
57 | ACGGACCA | 0.127
58 | ATCATATA | 0.269
59 | CCACAATC | 0.0126
60 | CTCCTATA | -0.319
61 | CGTGCCTC | -0.176
62 | GAACTGAA | 0.0861
63 | GCACTTAC | 0.112
64 | TAAGGACA | -0.103
65 | AGTCCGGC | -0.124
66 | CTCCCGTA | -0.157
67 | AGCCGAAA | -0.0624
68 | GGCTTGCA | -0.0732
69 | CGCTGACA | 0.191
70 | GTGCTAAC | -0.0228
71 | AATTTACC | -0.0326
72 | TGGATTAA | 0.118
73 | GCCCCCAA | -0.299
74 | ACATTGGT | -0.0245
75 | GGTAGAAC | 0.0259

Part of the list above, set out differently:
Row	Sequence	PBM E-score
26	CTGACATC	0.173
27	CCGCAGTA	-0.133
28	ACATTAGT	0.109
29	GTAAGCAA	0.419
30	AATACTTA	0.0724
31	TACGAGGA	0.0138
32	AGAGGTCG	-0.0588
33	AGCTTTTC	-0.105
34	CTCGAGTA	0.147
35	CTTGTAAC	0.129
36	AGGTTACG	0.067
37	GGCGCGCA	0.116
38	ATGCTTTA	-0.0364
39	TCCTGCGA	0.00245
40	CGGAGGTA	-0.106
41	CTCCTCAG	-0.237
42	TCCGTCGA	0.193
43	GTCATCGA	-0.115
44	CTTCCAGC	-0.219
45	TCGAAACA	0.183
46	CTATAAGA	0.0762
47	ACCACCAG	0.0519
48	GCCCTTAC	-0.289
49	ACTCGAGA	0.116
50	CAGGGGCC	-0.202
51	GCGGGCAC	-0.00324
52	ACATAGAG	-0.0918
53	CAGGAAGA	-0.0593
54	ACGTCTGA	0.021
55	CTGACACC	-0.181
56	ACAATGCT	0.0549
57	ACGGACCA	0.127

Further results

Row | Sequence | PBM E-score
76 | ACTATAAG | 0.142
77 | GAGGTGGC | -0.175
78 | AATGACTA | 0.0463
79 | AAGATGAT | 0.0774
80 | CGACCGCA | -0.0103
81 | ATGTGGGG | -0.0693
82 | AGCTGTAG | 0.139
83 | ACGTGACT | -0.271
84 | CCTCGCTC | -0.0422
85 | TGGTTCAA | 0.0807
86 | CCTAGCAA | -0.0348
87 | GACACGAC | -0.0785
88 | CAAAGAGG | -0.0892
89 | GATTCATA | 0.131
90 | AATCGACT | -0.0454
91 | CAATAGCC | 0.0319
92 | CTAGGAGC | -0.291
93 | CTCGAATA | -0.186
94 | GAGTTGCA | 0.088
95 | ATGCACCG | -0.131
96 | AAAGAATT | 0.0863
97 | CCGCACAA | -0.0338
98 | CTAAGGCA | -0.173
99 | ACACGCGC | -0.0699
100 | AATCGTAG | 0.0405

Row | Sequence | PBM E-score
101 | CGTCCCAC | -0.0257
102 | AAGGTAGA | -0.0568
103 | AGATTTAA | 0.0294
104 | GTTGACAA | 0.18
105 | CACAGGTG | -0.0586
106 | CTGCCCAA | -0.00475
107 | AACTACCC | -0.0456
108 | ATACGTGC | 0.0387
109 | TACAAGAA | 0.152
110 | GTAAGCAC | 0.319
111 | CCGGGCTA | -0.296
112 | CTAGTCAC | -0.111
113 | GCTACTGA | 0.0276
114 | CAGTGACC | -0.0879
115 | CCTGCAAA | -0.198
116 | GAAAGAAA | 0.283
117 | AACGGTAA | -0.00391
118 | ACTCCCGA | -0.14
119 | GTAGGGTA | 0.0976
120 | AGCTATCA | 0.103
121 | GTCCAGAC | -0.291
122 | AGTCTACG | -0.192
123 | CAGGGTAG | -0.0591
124 | AGCAACAC | 0.115
125 | GGTCCACC | -0.29

Taken from above.
Entry for ACATTGGT under PBM E-score: -0.0245
Entry for ACCACCAG under PBM E-score: 0.0519
Entry for GTAAGCAC under PBM E-score: 0.319
Entry for CGACACCC under PBM E-score: -0.0488

Next part.

Row | Sequence | PBM E-score
126 | CGGCCTAA | -0.174
127 | CGGTAACG | -0.0557
128 | GGCGAGCC | -0.17
129 | CTAGCGAA | -0.219
130 | AGATGAAA | 0.166
131 | CATCGATC | -0.0097
132 | CAGACGCA | 0.101
133 | GATGGGAA | -0.176
134 | AGGTTAAG | -0.121
135 | CGCCCCGA | 0.0731
136 | CCTGAAGG | -0.17
137 | GCACAAAC | 0.0336
138 | CCCCAACA | 0.0749
139 | CCAGTCGC | -0.0488
140 | ACCTACGA | -0.122
141 | AGTGCCGC | -0.124
142 | CAGGCCTA | 0.00358
143 | CCTCAGAA | -0.179
144 | CACTGATA | 0.00814
145 | AGTTCCAG | -0.107
146 | AGAGTTCG | 0.0959
147 | GTGACGTA | 0.204
148 | CGTAAGGA | -0.0602
149 | ATCGATGA | 0.0297
150 | CCTCTCCC | -0.155

Row | Sequence | PBM E-score
151 | ATCTCCAG | -0.16
152 | TAGTAGCA | 0.0354
153 | AAAATCTG | 0.127
154 | CGCTTCCC | -0.191
155 | ATCTGTGA | -0.0107
156 | CGTATGAG | 0.0151
157 | AAAGCACC | -0.107
158 | CAACCATG | 0.181
159 | AGCTTGAG | -0.19
160 | CCGCGGCA | 0.244
161 | GTGGCTCA | -0.00924
162 | CAAGTCAA | 0.0864
163 | ACAGTCCA | -0.057
164 | TAATGCTA | 0.192
165 | GGTTCCTA | -0.1
166 | ACAAGAGG | -0.127
167 | GATGGGCA | 0.0726
168 | AACGTCAA | -0.0914
169 | CTTGTGAA | 0.0448
170 | AAACGCCA | 0.128
171 | AATATGGT | 0.146
172 | ATAGGACC | -0.0995
